This note sets out measurements from patent US6265537A (Bayer Aktiengesellschaft, priority 1997, dated 2001).

The data set in a line: general procedure: solution-phase peptide synthesis. Particulars: late stage modification step, of theory.
As for “cyclo (-N-mehtyl-L-leucyl-D-thiolactyl-N-methyl-L-leucyl-D-4-(fur-2-yl-methoxy)- phenylthiolactyl-N-methyl-L-leucyl-D-thiolactyl-N-methyl-L-leucyl-D-phenylthiolactyl-)”, the step yield was 26.6% of theory.

Consider “cyclo (-N-methyl-L-leucyl-D-thiolactyl-N-methyl-L-leucyl-D4-(fur-2-yl-methoxy)-phenylthiolactyl-N-methyl-L-leucyl-D-thiolactyl-N-methyl-L-leucyl-D-4-(fur-2-yl-methoxy)-phenylthiolactyl-)”, for which the step yield is on record as 22.7% of theory.

Take “cyclo (-N-methyl-L-leucyl-D-thiolactyl-N-methyl-L-leucyl-D4-(pyrid-2-yl-methoxy)-phenylthiolactyl-N-methyl-L-leucyl-D-thiolactyl-N-methyl-L-leucyl-D-4-(pyrid-2-yl-methoxy)-phenylthiolactyl-)”: the step yield was 30.9% of theory.

On to “cyclo(-N-methyl-L-leucyl-D-thio-lactyl-N-methyl-L-leucyl-D4-N-morpholino-phenylthiolactyl-N-methyl-L-leucyl-D-thiolactyl-N-methyl-L-leucyl-D-4-N-morpholinophenylthiolactyl-)”, for which the step yield was 70.0% of theory.

“cyclo(-N-methyl-L-leucyl-D-thiolactyl-N-methyl-L-leucyl-D4-(fur-2-yl-methoxy)-phenyllactyl-N-metbyl-L-leucyl-D-lactyl-N-metbyl-L-leucyl-D-phenyllactyl-)”: the step yield was 11.4% of theory.

For the substance “cyclo(-N-methyl-L-leucyl-D-thiolactyl-N-methyl-L-leucyl-D-4-(fur-2-yl-methoxy)-phenyllactyl-N-methyl-L-leucyl-D-lactyl-N-methyl-L-leucyl-D-4-(fur-2-yl-methoxy)-phenyllactyl-)”, the step yield is recorded as 27.3% of theory.

With “cyclo(-N-methyl-L-leucyl-D-thiolactyl-N-methyl-L-leucyl-D-4-N-morpholinophenyllactyl-N-methyl-L-leucyl-D-lactyl-N-methyl-L-leucyl-D4-N-morpholinophenyllactyl-)”, the step yield was 16.8% of theory.

For “cyclo(-N-methyl-L-leucyl-D-thiolactyl-N-methyl-L-leucyl-D-4-nitrophenylthiolactyl-N-methyl-L-leucyl-D-thiolactyl-N-methyl-L-leucyl-D-4-nitrophenylthiolactyl-)”, the step yield is reported as 63.8% of theory.

Regarding “cyclo(-N-methyl-L-leucyl-D-thiolactyl-N-methyl-L-leucyl-D-phenyllactyl-N-methyl-L-leucyl-D-lactyl-N-methyl-L-leucyl-D-phenyllactyl-)”, the step yield is recorded as 11.8% of theory.

Take “cyclo(-N-methyl-L-leucyl-D-thiolactyl-N-methyl-L-leucyl-D-phenylthiolactyl-N-methyl-L-leucyl-D-thiolactyl-N-methyl-L-leucyl-D-phenylthiolactyl-)”: the step yield is 43.6% of theory.

Regarding “cyclo(-N-methyl-L-leucyl-D-thiolactyl-N-methyl-Leucyl-D-4-nitrophenyllactyl-N-methyl-L-leucyl-D-lactyl-N-methyl-L-leucyl-D-4-nitrophenyllactyl-)”, the step yield is listed as 3.1% of theory.
